Reference: paper PMC4762426
These are yes or no findings as the source states them, for the method shown. In cells and extracts the contact can be indirect. Some entries that bind do so weakly or less than the wild type.

By UniProt entry, the sequences of proteins in these tests, tags left out.
UniProt Q6ZW49: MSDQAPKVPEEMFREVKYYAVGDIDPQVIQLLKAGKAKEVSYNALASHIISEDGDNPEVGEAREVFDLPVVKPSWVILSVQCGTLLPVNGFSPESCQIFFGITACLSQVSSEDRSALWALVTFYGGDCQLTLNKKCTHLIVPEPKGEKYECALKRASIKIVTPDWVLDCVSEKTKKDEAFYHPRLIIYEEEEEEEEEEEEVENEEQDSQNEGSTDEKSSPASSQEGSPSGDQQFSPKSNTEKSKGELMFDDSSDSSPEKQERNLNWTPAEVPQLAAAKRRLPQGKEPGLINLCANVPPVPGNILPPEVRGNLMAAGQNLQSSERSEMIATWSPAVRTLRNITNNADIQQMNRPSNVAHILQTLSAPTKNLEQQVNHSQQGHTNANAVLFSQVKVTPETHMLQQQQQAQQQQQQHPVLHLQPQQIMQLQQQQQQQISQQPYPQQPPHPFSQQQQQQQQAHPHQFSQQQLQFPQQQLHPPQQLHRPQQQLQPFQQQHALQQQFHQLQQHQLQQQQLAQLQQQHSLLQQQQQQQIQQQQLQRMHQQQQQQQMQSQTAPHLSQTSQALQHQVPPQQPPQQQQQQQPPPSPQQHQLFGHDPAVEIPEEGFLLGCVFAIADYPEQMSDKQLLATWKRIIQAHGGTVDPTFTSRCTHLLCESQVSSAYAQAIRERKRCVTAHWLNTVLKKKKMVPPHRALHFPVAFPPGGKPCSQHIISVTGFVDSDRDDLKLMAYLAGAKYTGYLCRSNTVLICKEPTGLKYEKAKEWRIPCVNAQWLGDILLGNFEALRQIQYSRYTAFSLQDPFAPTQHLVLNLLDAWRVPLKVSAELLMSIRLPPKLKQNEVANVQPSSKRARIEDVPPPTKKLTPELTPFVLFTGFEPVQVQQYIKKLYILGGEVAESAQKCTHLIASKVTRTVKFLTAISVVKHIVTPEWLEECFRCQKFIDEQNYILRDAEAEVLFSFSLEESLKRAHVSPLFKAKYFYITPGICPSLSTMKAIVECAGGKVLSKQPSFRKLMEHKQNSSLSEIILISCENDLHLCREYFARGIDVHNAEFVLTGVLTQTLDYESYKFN
UniProt O94762: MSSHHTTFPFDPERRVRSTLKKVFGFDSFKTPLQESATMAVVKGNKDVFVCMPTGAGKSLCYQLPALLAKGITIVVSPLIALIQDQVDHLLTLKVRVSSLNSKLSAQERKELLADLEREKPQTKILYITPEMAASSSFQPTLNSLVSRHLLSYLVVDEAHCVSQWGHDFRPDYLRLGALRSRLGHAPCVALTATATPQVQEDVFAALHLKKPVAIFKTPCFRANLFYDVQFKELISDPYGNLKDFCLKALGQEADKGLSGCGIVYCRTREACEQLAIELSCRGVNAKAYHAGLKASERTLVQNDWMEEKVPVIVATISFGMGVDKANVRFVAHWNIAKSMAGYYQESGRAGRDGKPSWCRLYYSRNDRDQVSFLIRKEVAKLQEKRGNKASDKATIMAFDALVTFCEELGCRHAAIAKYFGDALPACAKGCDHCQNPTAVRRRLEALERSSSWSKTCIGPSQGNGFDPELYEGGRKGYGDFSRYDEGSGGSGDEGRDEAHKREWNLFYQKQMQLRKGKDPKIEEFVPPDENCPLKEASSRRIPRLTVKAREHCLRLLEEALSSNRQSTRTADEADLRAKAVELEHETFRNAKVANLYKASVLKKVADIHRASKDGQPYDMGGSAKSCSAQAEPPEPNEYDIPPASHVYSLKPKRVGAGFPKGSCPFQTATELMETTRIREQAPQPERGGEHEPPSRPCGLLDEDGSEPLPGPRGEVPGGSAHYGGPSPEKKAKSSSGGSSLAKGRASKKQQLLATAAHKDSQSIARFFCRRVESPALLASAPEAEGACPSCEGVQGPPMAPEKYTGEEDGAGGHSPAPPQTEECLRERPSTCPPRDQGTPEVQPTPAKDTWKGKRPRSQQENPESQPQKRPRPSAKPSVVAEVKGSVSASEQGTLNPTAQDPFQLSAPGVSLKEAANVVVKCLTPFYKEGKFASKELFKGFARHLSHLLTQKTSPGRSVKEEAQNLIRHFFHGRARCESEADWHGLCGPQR

Molecular target: MLL2-Flag (human) (UniProt O14686)
Experiment: co-IP; MLL2-Flag immunoprecipitation from HCT116 nuclear extracts (Episeeker kit) treated with benzonase; Western blotting; parental cells without MLL2-Flag as control

| binding | Substance |
| --- | --- |
| binds | PTIP (from UniProt Q6ZW49 1-1069) |
| binds | RECQL5 (endogenous, HCT116) (from UniProt O94762 1-991) |
